Measured values from publication PMC10077476.
These are yes or no findings as the source states them, for the method shown. For part of these data: Binding calls can cover weak binding; strength is not graded here. Tags and fused reporters may be left off the sequences shown. For part of these data: In cells and extracts the contact can be indirect. Values belong to the binder of their own block, whether it stands above or below them.

Amino acid sequences for entries named in this document (tags omitted). A change or cut given only in a name is not applied to a line headed by its entry.
UniProt Q8K4J6: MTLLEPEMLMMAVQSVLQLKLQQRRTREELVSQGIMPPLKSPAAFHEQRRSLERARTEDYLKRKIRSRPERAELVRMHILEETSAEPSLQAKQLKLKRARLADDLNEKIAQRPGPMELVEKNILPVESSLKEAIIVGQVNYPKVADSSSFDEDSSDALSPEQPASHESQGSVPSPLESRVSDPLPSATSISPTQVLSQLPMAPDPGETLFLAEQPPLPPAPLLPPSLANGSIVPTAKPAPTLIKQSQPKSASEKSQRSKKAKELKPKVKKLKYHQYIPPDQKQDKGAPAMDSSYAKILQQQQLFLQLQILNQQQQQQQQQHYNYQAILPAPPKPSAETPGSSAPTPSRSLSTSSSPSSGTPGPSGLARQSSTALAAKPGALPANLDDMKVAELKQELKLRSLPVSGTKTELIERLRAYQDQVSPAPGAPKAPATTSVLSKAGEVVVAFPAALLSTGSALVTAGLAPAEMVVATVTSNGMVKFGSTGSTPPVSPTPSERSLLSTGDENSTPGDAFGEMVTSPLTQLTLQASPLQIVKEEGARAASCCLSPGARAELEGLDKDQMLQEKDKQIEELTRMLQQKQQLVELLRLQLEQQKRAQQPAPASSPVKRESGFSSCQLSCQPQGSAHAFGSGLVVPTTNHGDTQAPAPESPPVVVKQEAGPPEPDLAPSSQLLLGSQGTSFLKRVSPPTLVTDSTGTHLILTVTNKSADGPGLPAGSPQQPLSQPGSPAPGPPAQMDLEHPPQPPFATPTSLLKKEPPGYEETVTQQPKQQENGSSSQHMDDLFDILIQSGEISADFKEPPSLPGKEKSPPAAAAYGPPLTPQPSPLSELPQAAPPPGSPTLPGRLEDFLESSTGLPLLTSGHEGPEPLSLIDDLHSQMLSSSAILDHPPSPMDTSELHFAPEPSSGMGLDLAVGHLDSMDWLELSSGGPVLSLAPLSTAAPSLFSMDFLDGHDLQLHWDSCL

How the values were obtained:
[1] = target: flag-MRTF-A aa 480–930 (transaction domain) (UniProt Q8K4J6); experiment: co-IP; COS-7 cells transfected with epitope-tagged Prdm6 and MRTF-A constructs; RIPA lysates, anti-myc or anti-flag IP overnight at 4°C, washed in 20 mM Tris HCl pH 7.3, 150 mM NaCl, 10% glycerol, 0.5% Triton X-100; Western blot; in separate experiments cytochalasin D was included
[2] = target: flag-MRTF-A aa 109–475 (central region) (UniProt Q8K4J6); experiment: as above
[3] = target: flag-MRTF-A aa 109–475 (central region) (UniProt Q8K4J6); experiment: far-Western, overlay or dot blot; flag-tagged MRTF-A variants immunoprecipitated from COS-7 cells, resolved by SDS-PAGE, transferred to nitrocellulose and renatured; incubated with recombinant GST-PRDM6 in blocking buffer (20% goat serum, 3% BSA, in PBS); probed with anti-GST Ab; both purified

binding [1]: no binding
binding [2]: binds
B1: myc-Prdm6 (COS-7) (protein, UniProt Q3UZD5 1-596)
chain: MLKPGDPGGSAFLKVDPAYLQHWQQLFPHGGGGGGPLKASGAALALGAPQPLQPPPPPPPPPPERAEPPPDGLRPRPASLSSTPAPSSTSASSASSCAAAAAAAALAGLSALPVAQMPVFAPLAAAAVAAEPLPPKDLCLGASAGPGPAKCGGGGGSVGDGRGVPRFRCSAEELDYYLYGQQRMEIIPLNQHTSDPNNRCDMCADNRNGECPMHGPLHSLRRLVGTSSAAAAAPPPELPEWLRDLPREVCLCTSTVPGLAYGICAAQRIQQGTWIGPFQGVLLSPEKVQTGVVRNTQHLWEIYDQDGTLQHFIDGGEPSKSSWMRYIRCARHCGEQNLTVVQYRSNIFYRACIDIPRGTELLVWYNDSYTSFFGIPLQCIAQDENLNVPSTVMEAMCRQDALQPFNKSSKLSPSGQQRSVVFPQTPCSRNFSLLDKSGPMEAGFNQINVKNQRVLASPTSTSQLHSEFSDWHLWKCGQCFKTFTQRILLQMHVCTQNPDRPYQCGHCSQSFSQPSELRNHVVTHSSDRPFKCGYCGRAFAGATTLNNHIRTHTGEKPFKCERCERSFTQATQLSRHQRMPNECKPITESPESIEVD

binding [3]: binds
B2: recombinant GST-PRDM6 protein (protein, UniProt Q3UZD5 1-596)
chain: B1 chain
